Measurements published in the supplement of paper PMC11006884.
Only a part is listed here, and it is no random draw.

Amino acid sequences for entries named in this document (tags omitted). A change or cut given only in a name is not applied to a line headed by its entry.
UniProt Q9NT62, whole entry, looked up: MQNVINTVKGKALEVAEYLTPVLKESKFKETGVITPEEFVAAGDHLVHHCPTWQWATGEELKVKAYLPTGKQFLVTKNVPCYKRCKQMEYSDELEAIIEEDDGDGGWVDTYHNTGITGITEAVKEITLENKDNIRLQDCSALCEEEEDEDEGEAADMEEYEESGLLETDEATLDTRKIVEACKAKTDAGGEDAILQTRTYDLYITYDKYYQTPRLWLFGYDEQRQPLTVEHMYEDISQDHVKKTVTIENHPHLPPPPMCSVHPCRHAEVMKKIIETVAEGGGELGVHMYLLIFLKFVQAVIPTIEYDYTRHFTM
UniProt Q9H7S9: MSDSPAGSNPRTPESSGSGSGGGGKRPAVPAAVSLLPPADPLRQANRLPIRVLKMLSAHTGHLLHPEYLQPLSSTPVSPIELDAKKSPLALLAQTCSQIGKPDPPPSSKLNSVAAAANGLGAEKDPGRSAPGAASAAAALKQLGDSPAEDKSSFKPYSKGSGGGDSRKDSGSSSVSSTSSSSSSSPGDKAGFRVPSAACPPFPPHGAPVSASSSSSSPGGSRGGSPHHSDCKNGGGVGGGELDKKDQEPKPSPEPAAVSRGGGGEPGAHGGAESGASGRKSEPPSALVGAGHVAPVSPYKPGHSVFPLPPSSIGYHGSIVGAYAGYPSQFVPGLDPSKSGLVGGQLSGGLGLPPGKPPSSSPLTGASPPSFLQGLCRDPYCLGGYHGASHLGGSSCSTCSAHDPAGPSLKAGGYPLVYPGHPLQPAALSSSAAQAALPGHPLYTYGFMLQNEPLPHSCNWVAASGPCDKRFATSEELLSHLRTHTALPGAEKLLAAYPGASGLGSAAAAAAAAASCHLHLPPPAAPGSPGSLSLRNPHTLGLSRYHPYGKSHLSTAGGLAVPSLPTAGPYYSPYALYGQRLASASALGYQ
UniProt Q9H4I3: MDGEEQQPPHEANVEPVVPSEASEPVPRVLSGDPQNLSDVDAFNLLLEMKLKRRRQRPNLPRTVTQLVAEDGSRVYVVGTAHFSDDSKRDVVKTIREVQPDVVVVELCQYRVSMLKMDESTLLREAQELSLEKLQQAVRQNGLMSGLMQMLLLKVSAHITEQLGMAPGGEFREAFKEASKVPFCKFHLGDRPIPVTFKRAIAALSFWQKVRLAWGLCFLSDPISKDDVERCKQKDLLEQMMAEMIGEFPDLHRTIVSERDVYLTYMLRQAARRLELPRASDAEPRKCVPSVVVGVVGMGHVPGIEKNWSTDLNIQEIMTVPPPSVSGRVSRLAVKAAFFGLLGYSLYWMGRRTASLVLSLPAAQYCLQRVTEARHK
UniProt Q9NPD3, whole entry, looked up: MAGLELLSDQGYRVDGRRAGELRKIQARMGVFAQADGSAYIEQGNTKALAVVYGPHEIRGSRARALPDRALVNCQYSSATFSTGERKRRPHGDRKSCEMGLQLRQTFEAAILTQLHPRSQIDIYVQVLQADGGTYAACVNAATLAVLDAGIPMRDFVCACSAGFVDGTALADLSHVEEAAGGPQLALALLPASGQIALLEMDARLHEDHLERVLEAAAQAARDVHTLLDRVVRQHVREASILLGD
UniProt Q9NR56: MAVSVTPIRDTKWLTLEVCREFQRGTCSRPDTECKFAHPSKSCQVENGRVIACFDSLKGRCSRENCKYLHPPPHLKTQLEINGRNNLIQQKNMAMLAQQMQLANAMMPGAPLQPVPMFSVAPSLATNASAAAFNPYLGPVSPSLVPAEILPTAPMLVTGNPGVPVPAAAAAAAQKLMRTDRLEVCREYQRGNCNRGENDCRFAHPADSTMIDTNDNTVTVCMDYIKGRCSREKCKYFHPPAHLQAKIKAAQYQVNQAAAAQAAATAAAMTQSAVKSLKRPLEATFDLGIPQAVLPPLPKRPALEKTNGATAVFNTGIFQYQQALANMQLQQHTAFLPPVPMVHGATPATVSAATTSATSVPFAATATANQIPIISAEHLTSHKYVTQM
UniProt Q9NSD9: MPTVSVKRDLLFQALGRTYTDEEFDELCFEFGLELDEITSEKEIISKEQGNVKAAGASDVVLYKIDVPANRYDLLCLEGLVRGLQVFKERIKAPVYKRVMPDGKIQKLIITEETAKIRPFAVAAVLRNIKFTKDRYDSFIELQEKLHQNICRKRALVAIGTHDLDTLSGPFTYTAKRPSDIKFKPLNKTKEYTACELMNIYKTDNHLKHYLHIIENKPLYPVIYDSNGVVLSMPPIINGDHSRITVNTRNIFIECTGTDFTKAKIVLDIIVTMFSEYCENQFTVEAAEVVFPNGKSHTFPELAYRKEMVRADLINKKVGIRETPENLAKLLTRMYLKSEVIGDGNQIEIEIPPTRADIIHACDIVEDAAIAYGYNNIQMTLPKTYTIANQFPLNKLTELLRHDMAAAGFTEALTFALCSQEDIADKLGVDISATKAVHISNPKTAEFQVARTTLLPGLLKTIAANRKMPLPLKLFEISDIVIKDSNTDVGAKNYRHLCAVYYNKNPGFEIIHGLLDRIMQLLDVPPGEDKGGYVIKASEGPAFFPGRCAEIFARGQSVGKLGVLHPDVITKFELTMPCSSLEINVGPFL
UniProt Q9H9A7: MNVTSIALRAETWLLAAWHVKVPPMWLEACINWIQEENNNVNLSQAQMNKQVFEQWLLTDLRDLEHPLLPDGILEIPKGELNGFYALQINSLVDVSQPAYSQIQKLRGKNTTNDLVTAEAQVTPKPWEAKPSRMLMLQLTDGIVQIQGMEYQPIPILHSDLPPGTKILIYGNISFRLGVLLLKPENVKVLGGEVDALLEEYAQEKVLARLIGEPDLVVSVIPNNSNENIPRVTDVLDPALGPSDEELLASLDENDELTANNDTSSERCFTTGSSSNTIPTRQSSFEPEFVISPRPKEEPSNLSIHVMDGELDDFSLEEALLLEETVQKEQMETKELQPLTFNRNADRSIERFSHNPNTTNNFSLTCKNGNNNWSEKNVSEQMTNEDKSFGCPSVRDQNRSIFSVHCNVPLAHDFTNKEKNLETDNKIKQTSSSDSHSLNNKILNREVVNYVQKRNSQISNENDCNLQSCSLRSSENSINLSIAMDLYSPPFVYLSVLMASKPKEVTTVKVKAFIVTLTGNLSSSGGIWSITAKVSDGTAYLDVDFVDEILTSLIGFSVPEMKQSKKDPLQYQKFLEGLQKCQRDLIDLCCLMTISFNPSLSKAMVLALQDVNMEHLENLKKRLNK
UniProt Q9H4L4: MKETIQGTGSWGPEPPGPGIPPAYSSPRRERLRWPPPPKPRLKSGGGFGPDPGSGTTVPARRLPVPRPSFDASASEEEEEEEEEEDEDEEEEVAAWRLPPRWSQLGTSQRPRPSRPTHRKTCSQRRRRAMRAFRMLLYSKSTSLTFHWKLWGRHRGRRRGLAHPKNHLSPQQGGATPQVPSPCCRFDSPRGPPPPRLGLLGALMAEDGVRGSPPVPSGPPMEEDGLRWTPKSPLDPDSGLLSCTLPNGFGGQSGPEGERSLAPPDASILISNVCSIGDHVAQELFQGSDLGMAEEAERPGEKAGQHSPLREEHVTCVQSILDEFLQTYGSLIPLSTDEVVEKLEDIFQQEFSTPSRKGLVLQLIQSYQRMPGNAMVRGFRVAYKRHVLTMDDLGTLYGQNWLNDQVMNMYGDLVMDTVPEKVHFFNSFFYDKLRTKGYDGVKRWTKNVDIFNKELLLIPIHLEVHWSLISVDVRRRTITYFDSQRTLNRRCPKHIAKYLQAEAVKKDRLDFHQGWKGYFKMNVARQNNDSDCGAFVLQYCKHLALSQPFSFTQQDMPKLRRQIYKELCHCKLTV
UniProt Q9NR31: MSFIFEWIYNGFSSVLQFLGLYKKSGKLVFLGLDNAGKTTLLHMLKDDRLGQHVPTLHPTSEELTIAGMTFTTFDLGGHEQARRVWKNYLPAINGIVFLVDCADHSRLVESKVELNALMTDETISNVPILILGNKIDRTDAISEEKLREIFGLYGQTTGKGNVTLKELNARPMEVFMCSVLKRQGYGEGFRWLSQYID
UniProt Q9HCK8: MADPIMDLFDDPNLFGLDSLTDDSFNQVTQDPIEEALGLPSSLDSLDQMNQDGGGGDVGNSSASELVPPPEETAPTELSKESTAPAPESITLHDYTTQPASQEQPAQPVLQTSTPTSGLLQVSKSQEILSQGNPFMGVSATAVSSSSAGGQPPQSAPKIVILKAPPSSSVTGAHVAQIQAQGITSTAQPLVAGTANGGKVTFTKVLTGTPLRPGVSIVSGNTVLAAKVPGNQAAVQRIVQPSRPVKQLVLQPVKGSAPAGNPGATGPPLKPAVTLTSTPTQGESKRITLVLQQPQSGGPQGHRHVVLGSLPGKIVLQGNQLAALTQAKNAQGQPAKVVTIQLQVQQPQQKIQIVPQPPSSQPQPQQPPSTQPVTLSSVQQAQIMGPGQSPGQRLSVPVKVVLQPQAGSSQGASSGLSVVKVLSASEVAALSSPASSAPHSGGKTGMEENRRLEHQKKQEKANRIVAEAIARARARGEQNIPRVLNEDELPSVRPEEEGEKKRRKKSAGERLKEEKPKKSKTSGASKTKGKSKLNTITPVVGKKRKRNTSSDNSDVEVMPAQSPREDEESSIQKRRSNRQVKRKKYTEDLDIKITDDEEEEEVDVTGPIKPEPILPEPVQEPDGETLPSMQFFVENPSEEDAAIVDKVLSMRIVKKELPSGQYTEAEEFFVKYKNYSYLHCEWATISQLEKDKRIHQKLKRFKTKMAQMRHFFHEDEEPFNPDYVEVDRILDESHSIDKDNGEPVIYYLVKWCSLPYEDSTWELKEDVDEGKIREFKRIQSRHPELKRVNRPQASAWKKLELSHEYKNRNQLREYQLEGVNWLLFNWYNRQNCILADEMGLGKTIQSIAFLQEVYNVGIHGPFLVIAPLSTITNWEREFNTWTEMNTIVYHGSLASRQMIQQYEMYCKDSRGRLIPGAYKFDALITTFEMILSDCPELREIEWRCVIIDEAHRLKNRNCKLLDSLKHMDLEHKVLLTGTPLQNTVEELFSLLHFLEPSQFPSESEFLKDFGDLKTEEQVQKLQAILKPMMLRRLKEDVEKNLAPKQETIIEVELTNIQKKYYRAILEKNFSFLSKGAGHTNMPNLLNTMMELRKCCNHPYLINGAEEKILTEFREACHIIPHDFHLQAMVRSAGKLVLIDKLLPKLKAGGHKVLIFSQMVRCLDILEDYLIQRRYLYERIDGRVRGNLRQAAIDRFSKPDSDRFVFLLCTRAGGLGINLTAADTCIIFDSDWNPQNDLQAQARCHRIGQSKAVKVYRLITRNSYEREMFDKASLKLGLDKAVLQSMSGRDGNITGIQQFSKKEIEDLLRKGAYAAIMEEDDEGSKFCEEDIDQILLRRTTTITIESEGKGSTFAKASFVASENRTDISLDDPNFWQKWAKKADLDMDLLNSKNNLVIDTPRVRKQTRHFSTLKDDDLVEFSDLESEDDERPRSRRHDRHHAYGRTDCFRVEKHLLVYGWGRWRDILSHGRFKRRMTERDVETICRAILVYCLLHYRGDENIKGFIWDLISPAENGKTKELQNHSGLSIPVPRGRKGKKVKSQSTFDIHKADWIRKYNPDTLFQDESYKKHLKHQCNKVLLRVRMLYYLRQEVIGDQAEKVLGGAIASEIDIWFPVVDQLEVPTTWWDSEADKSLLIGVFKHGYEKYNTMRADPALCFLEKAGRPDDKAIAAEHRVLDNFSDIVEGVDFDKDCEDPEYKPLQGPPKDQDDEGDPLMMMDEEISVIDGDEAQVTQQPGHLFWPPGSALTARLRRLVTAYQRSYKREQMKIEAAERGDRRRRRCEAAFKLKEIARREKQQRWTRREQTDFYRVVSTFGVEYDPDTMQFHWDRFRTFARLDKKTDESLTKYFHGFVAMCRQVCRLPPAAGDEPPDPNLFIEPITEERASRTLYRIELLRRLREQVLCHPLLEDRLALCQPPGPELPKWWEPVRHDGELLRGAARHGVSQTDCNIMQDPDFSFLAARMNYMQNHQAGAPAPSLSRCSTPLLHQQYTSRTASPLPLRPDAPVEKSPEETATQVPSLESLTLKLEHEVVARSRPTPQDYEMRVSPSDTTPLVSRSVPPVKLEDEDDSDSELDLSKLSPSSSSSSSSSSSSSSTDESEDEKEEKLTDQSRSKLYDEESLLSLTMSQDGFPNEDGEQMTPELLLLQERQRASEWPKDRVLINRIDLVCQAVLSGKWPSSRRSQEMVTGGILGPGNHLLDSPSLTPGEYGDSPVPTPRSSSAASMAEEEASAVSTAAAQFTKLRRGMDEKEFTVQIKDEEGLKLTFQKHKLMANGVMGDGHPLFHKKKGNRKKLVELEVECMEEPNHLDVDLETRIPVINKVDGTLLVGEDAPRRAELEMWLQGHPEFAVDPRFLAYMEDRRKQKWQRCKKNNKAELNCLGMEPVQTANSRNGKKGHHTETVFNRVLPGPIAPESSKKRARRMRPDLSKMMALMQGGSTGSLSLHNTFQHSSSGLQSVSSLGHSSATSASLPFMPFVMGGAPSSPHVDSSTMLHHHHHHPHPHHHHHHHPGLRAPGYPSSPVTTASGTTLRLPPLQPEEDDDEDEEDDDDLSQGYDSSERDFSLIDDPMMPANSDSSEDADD
UniProt Q9NR33: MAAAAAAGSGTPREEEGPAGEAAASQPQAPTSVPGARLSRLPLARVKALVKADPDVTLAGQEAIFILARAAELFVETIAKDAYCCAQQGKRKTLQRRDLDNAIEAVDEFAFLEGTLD

Compound: COC(=O)C#Cc1ccccc1 [methyl 3-phenylpropiolate]
Assay: log2 ratio of iodoacetamide-alkyne labeling of the cysteine site, DMSO over compound (competition); higher = stronger covalent engagement of the cysteine by the compound, active = 1 or more
Conditions: 500 µM; treatment time 1 h; system: HEK293T cell lysate
In short: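 HEK293T lysate (2 mg/mL) was treated with DMSO or electrophile (500 µM, 1 h, ambient temperature), then iodoacetamide alkyne (1 h), clicked to sCIP-TMT reagents, pooled, trypsin-digested overnight at 37 °C, streptavidin-enriched and acid-eluted. Peptides were run on Orbitrap Eclipse LC-MS/MS with FAIMS and quantified in FragPipe. The log2 competition ratio per cysteine is mean control-channel over mean compound-channel reporter intensity. Duplicate channels and three replicates were used, and cysteines quantified in only one replicate were excluded.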

Row | Target | log2 ratio of iodoacetamide-alkyne labeling
1 | VTA1 C38 (UniProt Q9NP79) | inactive: 0.205
2 | ATG3 C264 (UniProt Q9NT62) | inactive: 0.294
3 | SCAF1 C950 (UniProt Q9H7N4) | inactive: 0.462
4 | EIF2B3 C334 (UniProt Q9NR50) | inactive: 0.456
5 | EHMT1 C265 (UniProt Q9H9B1) | inactive: 0.518
6 | UniProt Q9H6R7_C574 | inactive: 0.266
7 | MDN1 C95 (UniProt Q9NU22) | inactive: 0.132
8 | WNK1 C547 (UniProt Q9H4A3) | inactive: 0.996
9 | ZNF703 C96 (UniProt Q9H7S9) | inactive: 0.47
10 | SMARCAD1 C772 (UniProt Q9H4L7) | active: 1
11 | GLOD4 C269 (UniProt Q9HC38) | inactive: -0.142
12 | TRABD C287 (UniProt Q9H4I3) | inactive: 0.0519
13 | ARFGAP3 C312 (UniProt Q9NP61) | inactive: 0.763
14 | EXOSC4 C74 (UniProt Q9NPD3) | inactive: 0.0424
15 | MBNL1 C43 (UniProt Q9NR56) | inactive: 0.252
16 | RTN4 C1101 (UniProt Q9NQC3) | inactive: 0.12
17 | PREB C128 (UniProt Q9HCU5) | inactive: 0.545
18 | MBNL1 C34 (UniProt Q9NR56) | inactive: 0.203
19 | MDN1 C1394 (UniProt Q9NU22) | inactive: 0.336

Quoted at random: 2 entries already listed, in no set order.
Row | Target | log2 ratio of iodoacetamide-alkyne labeling
9 | ZNF703 C96 (UniProt Q9H7S9) | inactive: 0.47
6 | UniProt Q9H6R7_C574 | inactive: 0.266

Additional entries

Row | Target | log2 ratio of iodoacetamide-alkyne labeling
20 | FARSB C76 (UniProt Q9NSD9) | inactive: 0.183
21 | UNC45A C927 (UniProt Q9H3U1) | inactive: 0.0272
22 | RMI1 C268 (UniProt Q9H9A7) | inactive: 0.215
23 | SENP3 C532 (UniProt Q9H4L4) | inactive: 0.0982
24 | SAR1A C178 (UniProt Q9NR31) | inactive: 0.0354
25 | PPAN C180 (UniProt Q9NQ55) | inactive: 0.0291
26 | ESF1 C462 (UniProt Q9H501) | inactive: 0.309
27 | PEAK1 C993 (UniProt Q9H792) | inactive: 0.21
28 | HELLS C205 (UniProt Q9NRZ9) | inactive: 0.615
29 | DDX21 C682 (UniProt Q9NR30) | inactive: 0.109
30 | NIT2 C153 (UniProt Q9NQR4) | inactive: 0.000181
31 | PPAN C432 (UniProt Q9NQ55) | inactive: 0.73
32 | CHD8 C752 (UniProt Q9HCK8) | inactive: -0.389
33 | IARS2 C91 (UniProt Q9NSE4) | inactive: 0.81
34 | OSBPL3 C203 (UniProt Q9H4L5) | inactive: 0.76
35 | POLE4 C84 (UniProt Q9NR33) | inactive: -0.0179
36 | ATG3 C182 (UniProt Q9NT62) | inactive: 0.632
37 | YTHDC2 C25 (UniProt Q9H6S0) | inactive: 0.178
